From article PMC6256988
No constants are given. Whether binding was seen depends on the method and setting. For part of these data: Binding seen in cells or lysates may run through a third protein.

Sequences of proteins named here, by UniProt entry; tags and fusion partners are left off. Residues count along the entry.
UniProt P02787, residues 20-698: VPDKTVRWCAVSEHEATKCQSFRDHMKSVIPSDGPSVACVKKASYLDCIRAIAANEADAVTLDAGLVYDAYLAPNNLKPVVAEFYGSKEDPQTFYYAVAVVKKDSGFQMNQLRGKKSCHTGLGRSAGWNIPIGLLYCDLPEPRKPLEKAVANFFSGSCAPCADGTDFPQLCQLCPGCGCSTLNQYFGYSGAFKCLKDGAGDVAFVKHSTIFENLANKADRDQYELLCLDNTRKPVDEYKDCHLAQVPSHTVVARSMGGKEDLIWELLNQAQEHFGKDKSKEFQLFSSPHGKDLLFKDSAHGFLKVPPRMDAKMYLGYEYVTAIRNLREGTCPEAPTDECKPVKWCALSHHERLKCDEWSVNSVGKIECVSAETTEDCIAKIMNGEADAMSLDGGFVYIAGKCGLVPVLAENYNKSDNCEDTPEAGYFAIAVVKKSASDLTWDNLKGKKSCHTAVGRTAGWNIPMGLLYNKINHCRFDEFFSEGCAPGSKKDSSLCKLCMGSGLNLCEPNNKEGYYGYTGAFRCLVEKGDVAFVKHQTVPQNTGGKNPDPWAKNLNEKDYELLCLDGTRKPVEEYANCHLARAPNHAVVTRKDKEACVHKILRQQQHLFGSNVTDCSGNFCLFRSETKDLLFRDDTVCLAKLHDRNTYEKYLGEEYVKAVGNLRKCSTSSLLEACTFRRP
UniProt Q96RR4: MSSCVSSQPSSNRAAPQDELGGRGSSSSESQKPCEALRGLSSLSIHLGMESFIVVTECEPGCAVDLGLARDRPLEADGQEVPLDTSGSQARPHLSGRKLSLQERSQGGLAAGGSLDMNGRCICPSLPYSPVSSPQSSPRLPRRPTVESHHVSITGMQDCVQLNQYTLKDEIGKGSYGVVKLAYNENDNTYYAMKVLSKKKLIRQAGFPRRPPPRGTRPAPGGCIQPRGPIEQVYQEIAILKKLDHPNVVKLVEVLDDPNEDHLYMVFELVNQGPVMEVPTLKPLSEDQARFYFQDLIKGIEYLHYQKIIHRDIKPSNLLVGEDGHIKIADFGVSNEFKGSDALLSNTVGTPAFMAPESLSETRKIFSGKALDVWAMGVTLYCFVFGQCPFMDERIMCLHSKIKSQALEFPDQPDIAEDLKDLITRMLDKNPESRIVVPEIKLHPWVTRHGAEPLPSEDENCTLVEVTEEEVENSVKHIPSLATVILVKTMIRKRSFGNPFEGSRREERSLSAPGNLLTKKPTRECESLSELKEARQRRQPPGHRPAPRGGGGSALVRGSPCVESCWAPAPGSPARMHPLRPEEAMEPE

Columns and labels:
[1] = target: Flag-tagged transferrin (Human Transferrin full length, N-terminal Flag tag) (human) (UniProt P02787); experiment: co-IP; Flag-TF immunoprecipitated from HEK293 lysates (PBS, 1% IGPAL630) with anti-Flag antibody on Dynabeads protein-G overnight, washed thrice; immunoblot with anti-TF and anti-CaMKK2
[2] = target: Flag-tagged transferrin (Human Transferrin full length, N-terminal Flag tag) (human) (UniProt P02787); experiment: native gel or EMSA; BN-PAGE (4-15% gradient) followed by second-dimension SDS-PAGE and immunoblot; lysates in PBS with 1.5% n-dodecyl beta-D-maltoside; vertical alignment of complexes compared, wild-type against CaMKK2 KO
[3] = target: Flag-tagged transferrin (Human Transferrin full length, N-terminal Flag tag) (human) (UniProt P02787); experiment: cross-linking; Flag-TF-expressing HEK293 cells cross-linked with 2% paraformaldehyde in PBS for 10 min; gel mobility shift by SDS-PAGE and immunoblot for CaMKK2 and TF

- binding [1]: no binding
- binding [2]: no binding
- binding [3]: no binding
Substance: Ca2+/calmodulin-dependent protein kinase kinase 2 (endogenous, HEK293) (from UniProt Q96RR4 1-588) (enzyme)
